Experimental data reported in the supplement of paper PMC10735217.
This is one part of the list. This data set is noisy: repeats of one test often differ as much as different tests do.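 In a drug-repurposing library screen, luminescence reads luciferase driven by eight TEAD-binding elements, stably integrated into human kidney-derived cells. Compounds scoring over five robust Z scores above the plate mean are called hits.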

Test system: HEK293A TEAD-LUC reporter
Test: TEAD-luciferase reporter activity (YAP activation), robust Z score vs plate; higher = stronger YAP/TEAD activation
Conditions: 24 h

SMILES	TEAD-luciferase reporter activity (compound concentration: 200 nM)	TEAD-luciferase reporter activity (compound concentration: 2 uM)	TEAD-luciferase reporter activity (compound concentration: 10 uM)
O=C1CN2C(=O)CCC2N1 (stereo not drawn) [Dimiracetam]	inactive: -1.69	inactive: 1.69	inactive: 0.234
COc1ccc(S(=O)(=O)n2cc(CCC(=O)O)c3cc(OC)ccc32)cc1	inactive: 4.27	inactive: -0.142	inactive: -0.137
CC(C)Cc1ccc(-c2nc(-c3ccc(C(C)NC4CC(C(=O)O)C4)cc3)no2)cc1 (stereo not drawn)	inactive: -1.05	inactive: 0.845	inactive: 2.54
CC1(C)CC[C@]2(C(=O)O)CC[C@]3(C)C(=CC[C@@H]4[C@@]5(C)CC[C@H](O)C(C)(C)[C@@H]5CC[C@]43C)[C@@H]2C1	inactive: 0.0394	inactive: 0.193	inactive: -0.382
CNC(=O)c1cc2c(Oc3ccc(C(F)(F)F)cc3)cncc2s1	inactive: -1.34	inactive: -2.89	inactive: -2.12
N=C(N)N1CCc2ccc(OCC3(C(=O)O)CCN(c4ccncc4)CC3)cc2C1	inactive: -1.62	inactive: -0.213	inactive: 1.8
COC(=O)Nc1cn2nc(OCc3cc(OC)c(OC)c(OC)c3)ccc2n1	inactive: 3.98	active: 5.37	inactive: 4.95
CC(=O)O[C@]1(C(C)=O)CC[C@H]2[C@@H]3CCC4=CC(=O)CCC4=C3[C@@H](c3ccc(N(C)C)cc3)C[C@@]21C [ulipristal acetate]	inactive: 1.13	inactive: -1.42	inactive: 2.48
COc1cc(C)nc(-n2nc(C)cc2OC)n1	inactive: 0.891		inactive: 0.33
COc1cc(C)nc(-n2nc(C)cc2OC)n1 [epirizole]		inactive: -0.724	
Cc1ccc(CNCC2(F)CCN(C(=O)c3ccc(F)c(Cl)c3)CC2)nc1	inactive: 0.74	inactive: -0.624	inactive: -0.879
O=C(/C=C/C#Cc1cccc(NS(=O)(=O)c2ccccc2)c1)NO	inactive: -2.85	active: 7.28	inactive: 4.52
C=CCN1CCN(C(c2ccccc2)c2ccccc2)CC1 [Aligeron]	inactive: 1.27	inactive: 1.66	inactive: 1.76
CC(C)S(=O)(=O)NC[C@H](C)c1ccc(-c2ccc(CCNS(C)(=O)=O)cc2)cc1 [mibampator]	inactive: 0.853	inactive: -1.16	inactive: -0.274
CCCc1nn(C)c2c(=O)[nH]c(-c3cc(S(=O)(=O)N4CCN(C)CC4)ccc3OCC)nc12 [sildenafil, Kedem Pharmaceuticals]	inactive: -0.526	inactive: -0.721	inactive: -1.3
Nc1cccc(OCCCNCC2COc3cc4c(cc3O2)OCO4)c1 (stereo not drawn)	inactive: -0.811	inactive: 0.0597	inactive: 0.226
C[C@@H](N)CCNCCCCNC(=O)OCC(=O)NCCCCCCNC(=N)N	inactive: -1.09	inactive: -1.03	inactive: 0.565
C[N+]1(C)CCC(=C(c2ccccc2)c2ccccc2)CC1 [Diphenmanil (methylsulfate)]		inactive: -0.164	
C[N+]1(C)CCC(=C(c2ccccc2)c2ccccc2)CC1 [Diphemanil]	inactive: 0.224		inactive: -1.31
COc1cc(/C=C/C(=O)O)ccc1O	inactive: 0.0553		inactive: -0.765
COc1cc(/C=C/C(=O)O)ccc1O [Ferulic acid (sodium)]		inactive: 0.122	
C[C@@H]1c2ccccc2CCN1C(=O)c1cc2ncc(Br)cn2n1	inactive: -0.397	inactive: 1.11	inactive: 1.73
COc1cc2c(c3c1c(=O)c1cc4ccccc4cc1n3C)[C@H](OC(C)=O)[C@H](OC(C)=O)C(C)(C)O2		inactive: -1.84	
Cn1cc(-c2ccc3nnc(Sc4ccc5ncccc5c4)n3n2)cn1	inactive: 0.157	inactive: -1.63	inactive: -0.196
CC(=O)NC(C(=O)O)C(C)(C)SN=O (stereo not drawn)	inactive: -0.426	inactive: -1.88	inactive: 0.744
CCCCc1nc(Cl)c(C(=O)O)n1Cc1ccc(-c2ccccc2-c2nn[nH]n2)cc1 [Carboxylosartan]	inactive: -1.43	inactive: 0.912	inactive: -0.778

Single records, from the list above.
COc1cc(/C=C/C(=O)O)ccc1O reads TEAD-luciferase reporter activity (compound concentration: 200 nM): inactive: 0.0553; TEAD-luciferase reporter activity (compound concentration: 10 uM): inactive: -0.765
CCCCc1nc(Cl)c(C(=O)O)n1Cc1ccc(-c2ccccc2-c2nn[nH]n2)cc1 [Carboxylosartan] reads TEAD-luciferase reporter activity (compound concentration: 200 nM): inactive: -1.43; TEAD-luciferase reporter activity (compound concentration: 2 uM): inactive: 0.912; TEAD-luciferase reporter activity (compound concentration: 10 uM): inactive: -0.778

(continued)

SMILES	TEAD-luciferase reporter activity (compound concentration: 200 nM)	TEAD-luciferase reporter activity (compound concentration: 2 uM)	TEAD-luciferase reporter activity (compound concentration: 10 uM)
Cc1cc(C)cc(CN2CCCCC23Cc2ccccc2CNC3=O)c1 (stereo not drawn)	inactive: 0.555		inactive: 0.0893
CC(C)NC[C@@H](C(=O)N1CCN(c2ncnc3c2[C@H](C)C[C@H]3O)CC1)c1ccc(Cl)cc1 [Ipatasertib]		inactive: -0.903	
CC(C)NC[C@@H](C(=O)N1CCN(c2ncnc3c2[C@H](C)C[C@H]3O)CC1)c1ccc(Cl)cc1	inactive: -1.38		inactive: 1.52
CCOc1ccccc1OCCNC(C)Cc1ccc(OC)c(S(N)(=O)=O)c1 (stereo not drawn) [tamsulosin (0.2mg), GL PharmTech]	inactive: -3.02		inactive: -1.5
CCOc1ccccc1OCCNC(C)Cc1ccc(OC)c(S(N)(=O)=O)c1 (stereo not drawn) [tamsulosin (0.2mg)]		inactive: -0.319	
N=C(N)N/N=C/c1ccc(Cl)cc1Cl	inactive: 0.63	inactive: -0.39	inactive: 0.865
C[C@H](CSN=O)C(=O)N1CCC[C@H]1C(=O)O	inactive: 2.37	inactive: 0.709	inactive: -0.257
NC(=O)[C@H](Cc1ccc(-c2ccccc2)cc1)NC(=O)c1ccc(-c2ccc(C(F)(F)F)cc2)cc1	inactive: -0.839	inactive: -0.3	inactive: -0.873
COCCOCCOc1ccc(C2=N[C@@](C)(C(=O)O)CS2)c(O)c1	active: 5.72	inactive: -0.639	inactive: -1.11
COc1ccccc1N1CCC(CCCN2C(=O)CCCC2=O)CC1	inactive: -0.172	inactive: 0.118	inactive: -0.745
CCCCCCOC(=O)c1cccnc1	inactive: 3.53	inactive: 0.0923	inactive: -0.102
c1ccc2c(c1)CC(N1CCN(c3cccc4c3OCCO4)CC1)C2	inactive: -0.0141	inactive: 1.38	inactive: -1.1
O=C1CCC(N2Cc3ccccc3C2=O)C(=O)N1 (stereo not drawn)	inactive: -0.225	inactive: -0.214	active: 5.42
CC[C@H](C)[C@H](NC(=O)[C@H](C)NC(=O)[C@H](CC(=O)O)NC(=O)[C@H](C)NC(=O)[C@@H](N)Cc1ccc(O)cc1)C(=O)N[C@@H](Cc1ccccc1)C(=O)N[C@H](C(=O)N[C@@H](CC(N)=O)C(=O)N[C@@H](CO)C(=O)N[C@@H](Cc1ccc(O)cc1)C(=O)N[C@@H](CCCNC(=N)N)C(=O)N[C@@H](CCCCN)C(=O)N[C@H](C(=O)N[C@H](CC(C)C)C(=O)NCC(=O)N[C@@H](CCC(N)=O)C(=O)N[C@@H](CC(C)C)C(=O)N[C@@H](CO)C(=O)N[C@@H](C)C(=O)N[C@@H](CCCNC(=N)N)C(=O)N[C@@H](CCCCN)C(=O)N[C@@H](CC(C)C)C(=O)N[C@@H](CC(C)C)C(=O)N[C@@H](CCC(N)=O)C(=O)N[C@@H](CC(=O)O)C(=O)N[C@H](C(=O)N[C@@H](CCSC)C(=O)N[C@@H](CO)C(=O)N[C@@H](CCCNC(=N)N)C(N)=O)[C@@H](C)CC)C(C)C)[C@@H](C)O [Sermorelin]	inactive: -1.3	inactive: 0.452	inactive: 0.314
C[C@]12CCC(=O)C=C1CCC1C2CC[C@@]2(C)C1CC[C@]2(O)C(=O)CSCCO (stereo partly drawn)	inactive: -1.22	inactive: 1.57	inactive: 0.84
O=C(O)CCCCN(CCc1ccccc1OCc1ccc(CCc2ccccc2)cc1)Cc1ccc(C(=O)O)cc1 [Cinaciguat]	inactive: -0.684	inactive: 0.455	inactive: 1.05
CC(=O)[C@H]1CC[C@H]2[C@@H]3CCC4=CC(=O)CC[C@]4(C)[C@H]3CC[C@]12C [Progesterone]	inactive: 0.744	inactive: 0.804	inactive: 0.918
CCCCOc1cc(N)ccc1C(=O)OCCN(CC)CC	inactive: -2.01	inactive: -1.28	inactive: -0.42
CN(C)[C@@H]1CCC[C@H]1OC(=O)C(c1ccccc1)c1ccccc1	inactive: -2.9	inactive: -0.859	inactive: -0.915
COC(=O)C1=C(C)NC(C)=C(C(=O)OCCCCCCOc2cc(-c3ccccc3)[nH]n2)C1c1cccc([N+](=O)[O-])c1 (stereo not drawn)	inactive: -1.37	inactive: -1.54	inactive: -0.208
C#CCN(Cc1ccc2[nH]c(C)nc(=O)c2c1)c1ccc(S(=O)(=O)n2ccc3ccccc32)cc1	inactive: -0.491	inactive: -2.17	inactive: 1.15
CCCCCCCCCC(=O)c1ccc(O)c(C(=O)Nc2ccc([N+](=O)[O-])cc2)c1	inactive: -1.24	inactive: -1.16	inactive: 2.75
C[C@H]1CO[C@@H]2Cn3cc(C(=O)NCc4ccc(F)cc4F)c(=O)c(O)c3C(=O)N12 [cabotegravir]	inactive: -0.0603	inactive: -0.666	inactive: 1.37
COC(=O)c1cc2c(C(O)CNC(C)(C)C)ccc(O)c2[nH]1 (stereo not drawn)	inactive: -1.07	inactive: -0.473	inactive: 0.422
CCCN(Cc1ccc(Oc2ccccc2)cc1)C(=O)C1C(C(=O)O)C(C(=O)N(CCC)Cc2ccc(Oc3ccccc3)cc2)C1C(=O)O (stereo not drawn)	inactive: -1.36	inactive: -1.27	inactive: -1.24
Cc1ccc(C(=O)Oc2c(Br)cc(Br)c3ccc(C)nc23)cc1	inactive: -1.26	inactive: -0.49	inactive: 0.000197
